The supplement of paper PMC6078165

Tested on: BT20
Assay: relative JC-1 red fluorescence (viability) vs pre-drug, coculture with fibroblast (fraction); higher = more viable cancer cells
Method: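 JC-1 labelled TNBC cells cocultured 1:1 (1,500 cells each) with CellTrace Violet stained primary or stromal fibroblasts in 384-well plates in FluoroBrite medium, treated with one of 42 anticancer drugs at 0.1, 1, 10 or 100 uM. JC-1 red fluorescence (mitochondrial integrity in cancer cells only) was read by plate reader every 8 h for 72 h. Values are normalised to each well's pre-drug value. The stock of one drug was tenfold lower, so its dose labels may be too high.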

O=C(O)C1(C(=O)O)CCC1.[NH2-].[NH2-].[Pt+2] [Carboplatin]
relative JC-1 red fluorescence
Details	8 h	16 h	24 h	32 h	40 h	48 h	56 h	64 h	72 h
0.1 µM, coculture fibroblast: C12385	0.8981	0.809	0.757	0.692	0.64	0.609	0.583	0.565	0.549
0.1 µM, coculture fibroblast: H6013	0.961	0.889	0.866	0.83	0.788	0.772	0.762	0.738	0.718
0.1 µM, coculture fibroblast: H6019	0.86	0.792	0.785	0.729	0.689	0.671	0.649	0.63	0.615
0.1 µM, coculture fibroblast: H6076	0.892	0.88	0.8057	0.786	0.7561	0.7471	0.7399	0.745	0.732
0.1 µM, coculture fibroblast: H6231	0.886	0.893	0.858	0.811	0.777	0.724	0.686	0.671	0.643
0.1 µM, coculture fibroblast: HADF	0.816	0.822	0.848	0.816	0.6979	0.716	0.655	0.691	0.7
0.1 µM, coculture fibroblast: HCFa	0.9504	0.8713	0.87	0.838	0.805	0.784	0.767	0.755	0.719
0.1 µM, coculture fibroblast: HCPF	0.881	0.916	0.816	0.785	0.734	0.695	0.653	0.633	0.602
0.1 µM, coculture fibroblast: HHSteC	0.9392	0.839	0.816	0.732	0.662	0.624	0.587	0.561	0.537
0.1 µM, coculture fibroblast: HMF	0.747	0.914	0.7758	0.712	0.6622	0.6248	0.5913	0.561	0.534
0.1 µM, coculture fibroblast: HPFa	0.916	0.818	0.793	0.701	0.6663	0.612	0.577	0.543	0.486
0.1 µM, coculture fibroblast: HUF	0.9019	0.8	0.724	0.637	0.575	0.524	0.498	0.481	0.46
0.1 µM, coculture fibroblast: Hs5	0.832	0.927	0.849	0.7962	0.744	0.708	0.67	0.635	0.594
0.1 µM, coculture fibroblast: Hs27A	0.747	0.919	0.929	0.934	0.869	0.841	0.813	0.772	0.711
0.1 µM, coculture fibroblast: Hs343T	0.768	0.888	0.761	0.696	0.6494	0.6049	0.56	0.541	0.508
0.1 µM, coculture fibroblast: WS1	0.869	0.8143	0.73	0.67	0.617	0.591	0.563	0.534	0.522
1 µM, coculture fibroblast: C12385	0.865	0.785	0.731	0.658	0.589	0.556	0.531	0.511	0.494
1 µM, coculture fibroblast: H6013	0.934	0.8795	0.8545	0.8117	0.7756	0.7668	0.767	0.751	0.734
1 µM, coculture fibroblast: H6019	0.852	0.81	0.787	0.715	0.668	0.647	0.609	0.59	0.567
1 µM, coculture fibroblast: H6076	0.959	0.91	0.826	0.786	0.757	0.722	0.718	0.72	0.709
1 µM, coculture fibroblast: H6231	0.863	0.865	0.819	0.757	0.724	0.671	0.638	0.607	0.581
1 µM, coculture fibroblast: HADF	0.962	0.885	0.8165	0.767	0.7281	0.69	0.66	0.636	0.603
1 µM, coculture fibroblast: HCFa	0.9211	0.882	0.828	0.764	0.716	0.69	0.673	0.648	0.61
1 µM, coculture fibroblast: HCPF	0.946	0.891	0.811	0.742	0.691	0.649	0.612	0.595	0.549
1 µM, coculture fibroblast: HHSteC	0.921	0.94497	0.9759	0.912	0.895	0.869	0.864	0.851	0.829
1 µM, coculture fibroblast: HMF	0.945	0.861	0.749	0.68412	0.6338	0.5899	0.555	0.542	0.516
1 µM, coculture fibroblast: HPFa	0.9074	0.845	0.834	0.751	0.726	0.685	0.661	0.622	0.565
1 µM, coculture fibroblast: HUF	0.923	0.846	0.822	0.739	0.687	0.645	0.622	0.604	0.588
1 µM, coculture fibroblast: Hs5	0.988	0.8982	0.8231	0.77	0.738	0.708	0.679	0.648	0.617
1 µM, coculture fibroblast: Hs27A	0.876	0.971	0.901	0.878	0.841	0.818	0.798	0.771	0.715
1 µM, coculture fibroblast: Hs343T	0.951	0.883	0.757	0.68	0.611	0.555	0.509	0.487	0.46
1 µM, coculture fibroblast: WS1	0.863	0.7729	0.7336	0.6581	0.593	0.564	0.539	0.5091	0.4917

Values are relative to the signal before dosing, not to a vehicle control; the signal also falls without drug.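 Fibroblast labels denote human fibroblasts, mainly primary ones from uterus (C12385, HUF), lung (H6013), bone (Hs27A), adrenal (HADF) and skin (WS1), plus mammary HMF and breast cancer-associated Hs343T. Cancer cells are basal-like or mesenchymal-like triple-negative breast cancer lines. A hit is a response shift exceeding 3x replicate standard deviation. The tissue of the other fibroblasts is not given here.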
